Experimental findings from publication PMC4757516 are described below.

Amino acid sequences for entries named in this document (tags omitted).
UniProt Q13526: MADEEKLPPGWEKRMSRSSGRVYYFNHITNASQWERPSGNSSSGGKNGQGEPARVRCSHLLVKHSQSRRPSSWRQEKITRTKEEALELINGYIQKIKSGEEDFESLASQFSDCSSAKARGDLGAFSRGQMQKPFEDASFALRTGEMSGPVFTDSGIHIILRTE

Results are given in words; binding and its absence hold for the method and conditions named. Binding seen in cells or lysates may run through a third protein. Some entries that bind do so weakly or less than the wild type.

The target in this test is T1, endogenous FOXM1 (human (endogenous in Colo829)) (UniProt Q08050).
T1 sequence: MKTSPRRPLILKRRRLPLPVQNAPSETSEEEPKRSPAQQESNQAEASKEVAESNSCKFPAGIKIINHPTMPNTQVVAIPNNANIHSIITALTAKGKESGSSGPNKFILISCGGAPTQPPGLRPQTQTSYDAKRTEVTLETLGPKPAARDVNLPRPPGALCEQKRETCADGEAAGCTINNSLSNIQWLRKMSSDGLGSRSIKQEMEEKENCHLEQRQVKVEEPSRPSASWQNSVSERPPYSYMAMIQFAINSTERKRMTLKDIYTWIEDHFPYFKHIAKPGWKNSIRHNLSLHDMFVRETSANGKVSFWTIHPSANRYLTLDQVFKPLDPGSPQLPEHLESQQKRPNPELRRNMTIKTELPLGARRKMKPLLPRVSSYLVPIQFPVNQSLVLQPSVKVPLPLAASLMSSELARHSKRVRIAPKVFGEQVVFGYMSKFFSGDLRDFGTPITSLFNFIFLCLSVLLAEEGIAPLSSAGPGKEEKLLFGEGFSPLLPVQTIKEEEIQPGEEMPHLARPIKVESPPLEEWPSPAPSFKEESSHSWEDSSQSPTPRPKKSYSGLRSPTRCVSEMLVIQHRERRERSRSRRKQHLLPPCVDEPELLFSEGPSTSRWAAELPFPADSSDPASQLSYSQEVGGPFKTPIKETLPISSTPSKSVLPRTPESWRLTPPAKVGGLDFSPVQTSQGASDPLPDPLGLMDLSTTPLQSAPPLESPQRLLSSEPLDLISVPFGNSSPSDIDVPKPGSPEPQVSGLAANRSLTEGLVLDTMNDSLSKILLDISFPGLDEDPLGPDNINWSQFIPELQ
The experiment in a line: co-IP; endogenous proteins, Colo829 lysates, IP with an antibody against FOXM1 or control IgG; lysis buffer 20 mM Tris-HCl pH 8.0, 1% NP40, 10% glycerol, 1 mM MgCl2, 1 mM EDTA, 150 mM NaCl.

On to “endogenous Pin1 (from UniProt Q13526 1-163) (enzyme)”, for which the binding entry is recorded as “binds”.
